PubChem BioAssay AID1224826 – NIAID – 2016
Aim: 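Regulators of Tlr4 signalling leading to Tnf-alpha expression in macrophages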 (primary screen). System: RAW264.7 G9 macrophages from mouse bearing reporters for p65 (GFP) and the Tnf promoter (mCherry). Reagents: siRNA pool against mouse genes, 100 nM. Time to read-out: 16 h of LPS stimulation, after 2 days of siRNA transfection. Treatment: bacterial lipopolysaccharide (Salmonella minnesota R595), 10 ng/ml. Measured: 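Nuclear mCherry signal of the Tnf promoter reporter measured by imaging after background removal, scaled to each plate median and turned into robust z-scores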. Reading the numbers: Tnf reporter robust z-score: higher = stronger Tnf promoter reporter signal after LPS; Tnf reporter intensity: higher = stronger Tnf promoter reporter signal. Call rule: 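a well counts as active at a score of -1.3 or below (Tlr4 knock-down control median) or above 3 (raised signal); controls and wells holding fewer than 50 cells are excluded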. Calls: active = Tnf reporter clearly lowered or raised; inactive = no clear change in Tnf reporter.
Shown is a random part of about 17,000 reagents. Of all reagents, about 1,110 (6.6%) got an active call. 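Active means lowered or raised reporter signal; replicate intensities are raw and not normalised per plate.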

Tnf reporter robust z-score | fewer than 50 cells in well | Tnf reporter intensity, replicate 1 | Tnf reporter intensity, replicate 2 | Call | Target gene
0.96 | enough cells in well | 296 | 202 | inactive | Fgf22
-0.07 | enough cells in well | 196 | 174 | inactive | Il22ra1
-1.05 | enough cells in well | 84 | 101 | inactive | Abcg2
0.81 | enough cells in well | 302 | 155 | inactive | Adipor2
1.57 | enough cells in well | 243 | 240 | inactive | Rassf7
1.77 | enough cells in well | 350 | 165 | inactive | Ntsr2
2.06 | enough cells in well | 281 | 254 | inactive | Lbh
1.13 | enough cells in well | 235 | 232 | inactive | Chtf18
-0.77 | enough cells in well | 97.7 | 86.2 | inactive | Zkscan8
0.55 | enough cells in well | 159 | 229 | inactive | Ly6h
1.27 | enough cells in well | 333 | 224 | inactive | Epb41l3
0.68 | enough cells in well | 311 | 196 | inactive | Gm839
0.35 | enough cells in well | 267 | 281 | inactive | Arhgap32
– | fewer than 50 cells per well; well left out of calls | 101 | 64.3 | inactive | Tas2r134
-0.09 | enough cells in well | 117 | 189 | inactive | Bmp5
-0.39 | enough cells in well | 283 | 169 | inactive | Rhog
– | fewer than 50 cells per well; well left out of calls | 63.1 | 38.7 | inactive | Smyd1
2.33 | enough cells in well | 355 | 248 | inactive | Rhox4e
0.44 | enough cells in well | 201 | 160 | inactive | Tubb4b
0.65 | enough cells in well | 142 | 115 | inactive | Or52h1
0.79 | enough cells in well | 171 | 232 | inactive | Pard3b
-0.05 | enough cells in well | 195 | 177 | inactive | Irf9
-0.02 | enough cells in well | 215 | 139 | inactive | Dclk2
-0.29 | enough cells in well | 218 | 151 | inactive | Gpx5
-0.44 | enough cells in well | 190 | 202 | inactive | Zkscan5
-1.69 | enough cells in well | 110 | 46.6 | active | Defb39
– | fewer than 50 cells per well; well left out of calls | 143 | 99 | inactive | Isoc2b
0.72 | enough cells in well | 267 | 273 | inactive | Pou2f1
0.63 | enough cells in well | 351 | 251 | inactive | Scn5a
-0.21 | enough cells in well | 174 | 138 | inactive | Luc7l2
0.69 | enough cells in well | 276 | 173 | inactive | Slc12a2
-1.15 | enough cells in well | 132 | 76 | inactive | Ces3b
-0.99 | enough cells in well | 137 | 101 | inactive | Ripk1
– | fewer than 50 cells per well; well left out of calls | 128 | 60.9 | inactive | Lgalsl
1.03 | enough cells in well | 208 | 250 | inactive | Agps
0.65 | enough cells in well | 143 | 114 | inactive | Or52ae7
-0.95 | enough cells in well | 140 | 80.2 | inactive | Ncdn
2.28 | enough cells in well | 273 | 303 | inactive | A630031M04Rik
-0.82 | enough cells in well | 161 | 124 | inactive | Ankrd6
-0.3 | enough cells in well | 125 | 182 | inactive | Aqp4
0.19 | enough cells in well | 239 | 251 | inactive | Pex1
0.03 | enough cells in well | 156 | 105 | inactive | Pld2
-0.41 | enough cells in well | 204 | 162 | inactive | Gnai2
-0.33 | enough cells in well | 182 | 137 | inactive | Enox2
-0.47 | enough cells in well | 165 | 220 | inactive | Nfat5
-0.93 | enough cells in well | 107 | 275 | inactive | Ackr2
-0.89 | enough cells in well | 44.1 | 63.2 | inactive | Sostdc1
-0.15 | enough cells in well | 144 | 228 | inactive | Alg12
0.62 | enough cells in well | 279 | 190 | inactive | Kcnb1
0.39 | enough cells in well | 217 | 191 | inactive | Spred3
-0.27 | enough cells in well | 144 | 143 | inactive | Top1mt
1.86 | enough cells in well | 218 | 270 | inactive | Tjp2
0.99 | enough cells in well | 312 | 300 | inactive | Tubgcp4
0.97 | enough cells in well | 265 | 168 | inactive | Lactb
-0.69 | enough cells in well | 92.4 | 69.3 | inactive | Ugt1a1
– | fewer than 50 cells per well; well left out of calls | 70.3 | 0 | inactive | Copb1
3.75 | enough cells in well | 615 | 502 | active | Folr1
2.39 | enough cells in well | 159 | 208 | inactive | St3gal3

Sorted by “Tnf reporter intensity, replicate 1” (lowest first): some entries from above
Tnf reporter robust z-score | fewer than 50 cells in well | Tnf reporter intensity, replicate 1 | Tnf reporter intensity, replicate 2 | Call | Target gene
– | fewer than 50 cells per well; well left out of calls | 128 | 60.9 | inactive | Lgalsl
-1.15 | enough cells in well | 132 | 76 | inactive | Ces3b
-0.99 | enough cells in well | 137 | 101 | inactive | Ripk1
-0.95 | enough cells in well | 140 | 80.2 | inactive | Ncdn
0.65 | enough cells in well | 143 | 114 | inactive | Or52ae7
-0.82 | enough cells in well | 161 | 124 | inactive | Ankrd6
1.03 | enough cells in well | 208 | 250 | inactive | Agps
2.28 | enough cells in well | 273 | 303 | inactive | A630031M04Rik
0.69 | enough cells in well | 276 | 173 | inactive | Slc12a2
